Patent US4173481A (priority 1976, dated 1979)
For at least one compound, name, drawing or mass did not settle the structure.

Experiment: Photographic properties (fog, relative sensitivity, maximum density of the magenta dye image)
Conditions: 1.5 g per 100 g of dry gelatin, Table 1
Procedure: A silver iodobromide emulsion containing 6.0 mol % of silver iodide was optimally ripened using a sulfur-containing sensitizer and a gold sensitizer to prepare a high speed negative emulsion. To the emulsion were added anhydro-5,5'-tetrachloro-1,1'-diethyl-3,3'-di-(3-sulfopropyl)-benzimidazolocarbocyanine hydroxide as a spectral sensitizer, 4-hydroxy-6-methyl-1,3,3a,7-tetrazaindene as a stabilizer, and 1-(2,4,6-trichlorophenyl)-3-[3-(2,4-di-tert-amylphenoxyacetamide)benzamido]-5-pyrazolone (which was dissolved in tricresyl phosphate and ethyl acetate and dispersed in gelatin with sodium dodecylbenzenesulfonate) as a magenta color forming coupler to prepare an emulsion for a green-sensitivelayer of a color negative light-sensitive material. The emulsion thus-obtained was divided into four portions and a first portion was used as control. To the other three portions were added an aqueous solution of Compound 1 of the present invention, dimethylol urea (Compound A) and mucochloric acid (Compound B), respectively, in an amount of 1.5 g per 100 g of dry gelatin. Each emulsion was coated on a subbed cellulose triacetate support in a coated coupler amount of 1.5×10^-3 mol/m^2 and dried.
These samples were exposed to green light using an NSG II type sensitometer and processed according to the color processing procedure as described in Example 1 of Japanese patent application (OPI) No. 51940/1976 as follows.
The density of the magenta dye image thus-obtained was measured and fog, relative sensitivity and maximum density were determined.

O=C(NCO)NCO [Compound A, dimethylol urea]
Fog: 0.18
Relative Sensitivity (control = 100): 90
Maximum Density (magenta dye image): 1.98
